Laboratory results as given in patent US20180325119A1 (PIONEER HI BRED INTERNATIONAL, published 2018).
These are yes or no findings as the source states them, for the method shown. In cells and extracts the contact can be indirect. Some results given as binding are weak or reduced against the parent protein; the word gives no strength.

Molecular target: IPD082Aa-2, 20.5 kDa C-terminal fragment of IPD082Aa (Pseudomonas vranovensis)
Test: co-expression in E. coli (polycistronic); complex co-purified by immobilized metal ion chromatography with a His-tag on only one of the two fragments

B1: IPD082Aa-1, N-terminal region of IPD082Aa (pETDuet-1 construct, N-6 His) (other)
chain: MQTTVSETLVSGSDPRLQVSMGNETANGRWDNPYAIQFTYSIAGRQFFYGQNLKTHYWFIQELLPGGKMGQETANGRWDNPYAVQFAFSVGGRQFFYGQNLETNYWFIQELLAGGKMGQETANGRWNNPYASQFAFSVGGRQFFYGQNLKTNYWFIQELLAGGKMGQETANGTLDGPFAVQFPFSVGGSQYFYGQNIKDRSWFIKELLAGGKVGKTTASGRWDNAYAVQFAYPAEQYGRQYFYGQNLDTNYWFVQELLPGGAMGEEIMNGRWGNPYATQFAYEQGGISYFYGQNQSSNYWFIQELLSDTEYTVRRLPLLDYSSSTSAAQQSAPGVCL
notes: Co-expressed in pETDuet-1 with untagged C-terminal fragments of IPD082 homologs; not shown: N-terminal 6xHis tag of the pETDuet-1 vector ('N-6 His for -1')
B1 was tested. Which binding did it give?
The binding was “binds”.
